Values from PubChem BioAssay AID743121 (NCATS, 2013).
In all, the deposit lists about 26,000 reagents; below is a part drawn at random. 167 of them (0.63%) count as active. 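Calls are per gene from RSA p-values that are not deposited; an individual active-marked siRNA can sensitise only weakly.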 Entries without a mark were called inactive. The numbers tell different reagents against one gene apart. Further read-outs or replicates are left out here. No sequences are given here.

- Test: 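Genes whose silencing strengthens cell killing by camptothecin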 (primary screen)
- System: MDA-MB-231 cells, a human breast cancer line
- Reagent: single siRNA against human genes, 20 nM siRNA (0.8 pmol per well)
- Duration: 120 h (drug added 48 h after transfection, read 72 h later)
- Conditions: camptothecin 20 nM (about EC30) for 72 h; vehicle 0.1% DMSO in parallel plates
- Measured: 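Cell viability by ATP luminescence (CellTiter-Glo) as % of non-targeting siRNA wells, and the log2 ratio of viability without drug over viability with camptothecin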
- Reading the numbers: log2 vehicle/camptothecin viability: higher = stronger sensitisation to camptothecin; viability with camptothecin: higher = more viable cells
- Active means: 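Each gene scored by redundant siRNA activity (RSA) over its individual siRNA ratios; a gene is called active at p < 0.001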

Against H1-0 (GeneID 3005) #1, the values are log2 vehicle/camptothecin viability -0.144; viability with camptothecin (% of control) = 91.2.
With knock-down of H1-0 (GeneID 3005) #2 the results were log2 vehicle/camptothecin viability 0.24; viability with camptothecin (% of control) = 84.1.
H1-0 (GeneID 3005) #3 scored log2 vehicle/camptothecin viability 0.138; viability with camptothecin (% of control) = 67.
With knock-down of PHKB (GeneID 5257) #1, the record shows log2 vehicle/camptothecin viability 0.029; viability with camptothecin (% of control) = 87.4.
Knock-down of PHKB (GeneID 5257) #2 gave: log2 vehicle/camptothecin viability 0.183; viability with camptothecin (% of control) = 53.
Depletion of PHKB (GeneID 5257) #3 came out at: log2 vehicle/camptothecin viability -0.169; viability with camptothecin (% of control) = 97.2.
Silencing of PHKB (GeneID 5257) #4 came out at: log2 vehicle/camptothecin viability -0.435; viability with camptothecin (% of control) = 88.5.
After knock-down of CDH3 (GeneID 1001) #1, the record shows log2 vehicle/camptothecin viability -0.0292; viability with camptothecin (% of control) = 105.
Knock-down of CDH3 (GeneID 1001) #2 came out at: log2 vehicle/camptothecin viability -0.305; viability with camptothecin (% of control) = 64.2.
For CDH3 (GeneID 1001) #3 the deposit lists log2 vehicle/camptothecin viability -0.0996; viability with camptothecin (% of control) = 76.9.
Against CDH3 (GeneID 1001) #4, the entry reads log2 vehicle/camptothecin viability -0.207; viability with camptothecin (% of control) = 111.
After knock-down of UBR2 (GeneID 23304) #1, the screen gave log2 vehicle/camptothecin viability -0.116; viability with camptothecin (% of control) = 87.2.
UBR2 (GeneID 23304) #2 gave log2 vehicle/camptothecin viability -0.308; viability with camptothecin (% of control) = 48.4.
Depletion of UBR2 (GeneID 23304) #3 resulted in: log2 vehicle/camptothecin viability -0.655; viability with camptothecin (% of control) = 73.8.
Against MED8 (GeneID 112950) #1, the entry reads log2 vehicle/camptothecin viability -0.0726; viability with camptothecin (% of control) = 55.1.
With knock-down of MED8 (GeneID 112950) #2, the record shows log2 vehicle/camptothecin viability -0.228; viability with camptothecin (% of control) = 96.2.
With knock-down of MED8 (GeneID 112950) #3 the results were log2 vehicle/camptothecin viability -0.24; viability with camptothecin (% of control) = 89.3.
MED8 (GeneID 112950) #4 gave log2 vehicle/camptothecin viability -0.223; viability with camptothecin (% of control) = 21.3.
After knock-down of SYNE2 (GeneID 23224) #1, the screen gave log2 vehicle/camptothecin viability -0.292; viability with camptothecin (% of control) = 90.3.
Silencing of SYNE2 (GeneID 23224) #2 resulted in: log2 vehicle/camptothecin viability -0.0594; viability with camptothecin (% of control) = 112.
With knock-down of SYNE2 (GeneID 23224) #3, the record shows log2 vehicle/camptothecin viability -0.0725; viability with camptothecin (% of control) = 87.1.
After knock-down of SYNE2 (GeneID 23224) #4 the results were log2 vehicle/camptothecin viability -0.561; viability with camptothecin (% of control) = 46.4.
BCKDK (GeneID 10295) #1 showed log2 vehicle/camptothecin viability -0.509; viability with camptothecin (% of control) = 85.
Against BCKDK (GeneID 10295) #2 the deposit lists log2 vehicle/camptothecin viability -0.0849; viability with camptothecin (% of control) = 56.1.
Silencing of BCKDK (GeneID 10295) #3 resulted in: log2 vehicle/camptothecin viability -0.195; viability with camptothecin (% of control) = 84.2.
With knock-down of BCKDK (GeneID 10295) #4 the results were log2 vehicle/camptothecin viability -0.0567; viability with camptothecin (% of control) = 75.2.
